Primary screen of a compound library

From ChEMBL document CHEMBL3988442, “University of Dundee, Small-Polar-MMV Screening Library” (2021).

Values are the deposited “Percent Effect”, in %. The controls that fix the scale are not given in the record; negative values are as filed. The compounds are a random part of those screened.

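Whole-parasite assay of Trypanosoma brucei over 72 hours; the read-out is not stated. Compounds at 30 µM. Direction is inferred from retests: higher values go with stronger inhibition. Values scatter widely below zero; nearly all retest evidence comes from the higher of the two concentrations used. About 64,000 compounds were tested under these conditions; 1.5% (about 940) showed 50% or more at least once.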

compound	effect
c1cncc(CNc2ccccc2-c2nn[nH]n2)c1	-12.1
Cc1nc(-c2ccccc2)sc1C(=O)N(C1CC1)C1CC(=O)NC1=O (stereo not shown)	37.33
COc1cccc(-c2nc(C)c(C(=O)N[C@H](CO)CCSC)s2)c1	-11.82
COc1cc(CN(C)Cc2ccncc2)c(SC)cc1OC	-4.987
CCS(=O)(=O)N1Cc2nccn2CC(Cn2cccn2)C1 (stereo not shown)	-45.67
COc1ccc(-c2noc(C(=O)NCCN3CCCCC3)n2)cc1OC	13.89
CS(=O)(=O)N1CCOC2(CCCN(c3cnccn3)C2)C1.O=C(O)C(F)(F)F (stereo not shown)	-13.17
CCn1c(C)cc(C(=O)N2CCCC(c3nc(C)no3)C2)c1C (stereo not shown)	1.096
CCc1nc(C2CCCN(c3nccc(N4CCCC4)n3)C2)no1 (stereo not shown)	-11.65
COc1ccccc1Nc1nc2c(s1)C(=O)CN(C(=O)CC(C)C)C2	-21.93
Cc1nc2ncccn2c1C(=O)N1CCc2[nH]cnc2C1	-29.96
O=C(c1ccoc1)N1CCCC1C1CCN(Cc2ccccc2)CC1 (stereo not shown)	-37.56
CNC(=O)Cc1ccc(NC(=O)NC(C)C(C)C)cc1 (stereo not shown)	9.346
O=C(Nc1nncs1)NC1CCOc2ccccc21 (stereo not shown)	-48.88
Oc1nnc(-c2cccs2)c2sc(N3CCCCC3)nc12	-5.749
CCC(C)N1CCC2(CC1)CN(c1cncnc1)C(=O)CO2.O=C(O)C(F)(F)F (stereo not shown)	-35.9
Cn1cc(CN2CCC3(CC2)NC(=O)CC3c2ccncc2)cn1.O=C(O)C(F)(F)F.O=C(O)C(F)(F)F (stereo not shown)	47.38
NC(=O)c1ccc(OCCC(=O)NC2CCc3c(F)cccc32)cc1 (stereo not shown)	-10.13
Cc1cnn(CCNCc2c(C)nn(CCO)c2C)c1	-24.47
CN1CCN(C(=O)c2cc(C#N)cn2C)c2ccccc2C1	-2.944
Cc1nc(NC(=O)C(C)N2CCN(c3ccccc3F)CC2)sc1C (stereo not shown)	-41.62
CC1CN(C(=O)c2cc[nH]c(=O)c2)c2ccccc21 (stereo not shown)	-8.951
Cc1nc(CN2CCN(C(=O)NC(C)c3cccnc3)CC2)cs1 (stereo not shown)	-25.13
Cc1cnn(CC(C)NCc2csc(-c3cnn(C)c3)n2)c1 (stereo not shown)	-0.2357
[H][C@@]12CN(Cc3ccoc3)CCO[C@]1([H])CN(C(=O)CC1CCCC1)C2	-21.34
O=C(c1ccc2c(c1)CCCC2)N1CCN(c2cnccn2)CC1	9.89
Nc1nccnc1C(=O)N(Cc1ccccc1O)CC1CCCO1 (stereo not shown)	-40.75
COCCN1CCC2(CC1)CC(NC(=O)C(C)C)c1ccccc1O2.O=C(O)C(F)(F)F (stereo not shown)	3.771
O=C(c1cscn1)N1CCC2(CCCN(CCOc3ccccc3)C2)C1 (stereo not shown)	-62.67
[H][C@@]12CCN(C[C@@H]1CC)[C@@H](CNCc1ccc(OC)cc1)C2	-4.6
O=C(O)C(F)(F)F.[H][C@@]12CC(=O)N(c3cccnc3)[C@@]1([H])CCN2C(=O)c1ccco1	-38.33
CN(C)CCCNC(=O)c1ccc(N(C)S(C)(=O)=O)cc1Cl	-9.048
CC(C)NC(=O)NCC(Cc1ccc(F)cc1)C(N)=O (stereo not shown)	-24.75
CC(C)(C)CCNc1nccc(-c2c[nH][nH]c2=O)n1	-1.258
Cc1csc(C2CCCN(C(=O)Cn3ccccc3=O)C2)n1 (stereo not shown)	-11.49
[H][C@@]12C[C@@H](OCc3ccccc3)C[C@]1([H])CN(C(=O)C1CCOCC1)C2	32.35
Cc1ccccc1C1CCN(CCn2cc(-c3nccs3)nn2)C1 (stereo not shown)	-85.1
CC(C)C(C)NC(=O)Nc1ccccc1CN1CCOCC1 (stereo not shown)	19.06
COc1ccc(-c2cc(=O)n3c(n2)CCCCC3)cc1	-6.553
O=c1c2cccc(F)c2ncn1CCN1CCOCC1	-40.01
CCS(=O)(=O)N1CCC(NCC2CNc3cc(C)nn3C2)CC1 (stereo not shown)	-23.14
CC1(C)CN(C(CNS(C)(=O)=O)c2ccc(Cl)cc2)CCO1 (stereo not shown)	-2.856
COCC(=O)N1CCc2nc(C)nc(NC(C)C)c2CC1	-83.1
c1ccc(CN2CCCC(c3nccnc3-n3ccnc3)C2)cc1 (stereo not shown)	2.825
CN1CCOC(CN(C(=O)CCc2cnn(C)c2)c2nccs2)C1 (stereo not shown)	-5.885
Cn1nc(CN2CCC(c3ccncc3)CC2)c2c(Cl)cccc21	31.87
COC(=O)C1CCCCN1C(=O)c1ccccc1F (stereo not shown)	0.8729
CCCc1nc(N2Cc3cnn(Cc4ccc(F)cc4)c3C2)no1	-5.032

For reference, 4 entries once more:

* COc1ccccc1Nc1nc2c(s1)C(=O)CN(C(=O)CC(C)C)C2 : -21.93%
* O=C(c1cscn1)N1CCC2(CCCN(CCOc3ccccc3)C2)C1 (stereo not shown) : -62.67%
* COc1ccc(-c2cc(=O)n3c(n2)CCCCC3)cc1 : -6.553%
* COc1cccc(-c2nc(C)c(C(=O)N[C@H](CO)CCSC)s2)c1 : -11.82%